Laboratory results from PubChem BioAssay AID504444 (National Center for Advancing Translational Sciences (NCATS), 2011).
About 7,500 (2.1%) of roughly 360,000 compounds were called active. Inconclusive results, whose numbers are uncertain, are shown with a selection of clear calls. Calls come from the whole dose curve; as a rule, active = well fitted inhibition curve with a large enough effect; inconclusive = small, poorly fitted or top-dose-only effect, or effect the other way; inactive = flat fitted curve, though single readings scatter. Potencies of inconclusive entries are doubtful fits and often do not repeat.

Assay: Nrf2 qHTS screen for inhibitors; note: nearly all actives have a fitted effect of over 60% in size
Conditions: A549 ARE-Fluc reporter, luciferase luminescence, 18-24 h; activity change, negative = inhibition: at 46 µM (top of the series)
Method in brief: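 Quantitative HTS in A549 cells stably bearing an antioxidant response element-firefly luciferase construct. Inhibition of Nrf2-driven transcription was scored by luminescence after 18-24 h of compound exposure at 37 °C.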
% is set by controls: 0 for no effect and ±100 for the full control effect; potency is the fitted concentration of half-maximal effect.

Row | Compound | Potency | activity change, negative = inhibition
1 | O=C(COC(=O)c1c(F)cccc1Cl)NCC1CCCCC1 | inconclusive: 16.4 µM [activator, single point] | –
2 | CN(C(=O)c1ccc(S(=O)(=O)NC2CCCC2)cc1)C1CCCCC1 | inconclusive: 14.6 µM [falling, partial curve, poor fit] | –
3 | COCCn1c(=O)[nH]c2cc(C(=O)NCCN3CCN(c4ccccc4F)CC3)ccc2c1=O | inactive | –
4 | Cn1c(CN2CCCC2)nc2cc(NC(=O)COc3ccc(Cl)cc3)ccc21 | inconclusive: 32.6 µM [falling, single point] | –
5 | COc1cccc(-c2nc(CS(=O)(=O)CC(=O)Nc3ccccc3Br)c(C)o2)c1 | inconclusive: 23.1 µM [falling, single point] | –
6 | Cc1ccc(C(=O)n2nc(-c3cccnc3)nc2N)cc1 | active: 1.3 µM | –
7 | CN(C)c1cc2c(c(N(C)C)c1)C(=O)c1ccccc1C2=O | inconclusive: 18.4 µM [falling, partial curve, poor fit] | –
8 | O=C1CS(=O)(=O)N(Cc2cccc(F)c2)c2ccc(Br)cc21 | inconclusive: 20.6 µM [activator, single point] | –
9 | O=C(Nc1ccncc1)c1ccc2c(c1)OCCO2 | inconclusive: 20.6 µM [falling, single point] | –
10 | CCc1nc(SCC(=O)NNC(=O)C(C)C)c2ccccc2n1 | inconclusive: 0.0046 µM [falling, full curve, poor fit] | –
11 | C/C(=N/NC(=O)c1ccccn1)c1c[nH]c2ccccc12 | inconclusive: 4.61 µM [activator, full curve] | –
12 | O=C(Nc1sc2c(c1C(=O)O)CCCCC2)c1ccccc1F | inconclusive: 2.91 µM [activator, full curve, poor fit] | –
13 | COc1cc(N(C)C)ccc1C=c1c2ccccc2n2c1cc(-c1ccccc1)[n+]2C | active: 14.6 µM | –
14 | COC(=O)c1cccc(Nc2nn3c(=O)c4cc5c(cc4nc3s2)OCO5)c1 | – | inactive: 1.4% [at 9.27 µM]
15 | O=[N+]([O-])c1cc(NS(=O)(=O)c2ccc(Cl)nc2)ccc1Cl | active: 16.4 µM | –
16 | COC(=O)C1=C(\O)CCCC/C=C\1C(=O)O | inactive | –
17 | Cc1ccc2[nH]c3c(=O)n(CC(=O)NC(C)C)ncc3c2c1 | inconclusive: 13 µM [activator, partial curve, poor fit] | –
18 | COC(=O)Nc1nc2ccc(Sc3ccccc3)cc2[nH]1 | inconclusive: 5.8 µM [activator, full curve] | –
19 | COCCn1cnc2c1c(=O)n(Cc1ccc(C#N)cc1)c(=O)n2Cc1ccccc1 | inconclusive: 11.6 µM [falling, partial curve] | –

Entries of single compounds from above.
O=C(Nc1ccncc1)c1ccc2c(c1)OCCO2 is listed as Potency: inconclusive: 20.6 µM [falling, single point]
C/C(=N/NC(=O)c1ccccn1)c1c[nH]c2ccccc12 is listed as Potency: inconclusive: 4.61 µM [activator, full curve]
